Laboratory results from PubChem BioAssay AID1508600 (Functional Genomics Laboratory (NCATS/FGL), 2020).
The campaign covered roughly 53,000 sequences. About 3,700 (7%) were called active.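 Rule for the calls: active = gene knockdowns whose robust z-score for IL-1 alpha signal is at least 2 or at most -2, so actives lie on both sides; inactive = the rest.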 Some of the results follow.

Assay: Components of the Cytosolic LPS Sensing Pathway: Gene Identification via Genome-wide siRNA Screen
Details: RAW264.7 macrophages, IL-1a HTRF, actives lie on both sides, screened at 100 nM (by protocol), cells primed 5 h with Pam3CSK4 first
Text: Non-canonical inflammasome activation by cytosolic LPS is a critical component of the host response to Gram-negative bacterial infection, however we lack a comprehensive understanding of the cellular processes that control this pathway. Here we describe a genome-wide siRNA screen to identify genes regulating the mouse macrophage IL-1 alpha response to cytosolic LPS.
RAW264.7 cells were maintained in complete DMEM media, comprising DMEM with 4.5 g/L glucose, 10% FBS (Gemini Bio-Products, West Sacramento, CA), 2 mM Glutamine (Lonza) and 20 mM HEPES (Lonza), hereafter complete DMEM.
The RNAi screen was conducted in 384-well format using the Ambion Silencer Mouse Genome siRNA Library (#4391425), which consists of three unique, nonoverlapping, nonpooled siRNAs for each of 17,000 gene targets. siRNA reagents ([…]) were stamped into 384-well white flat-bottom microplates (Corning, 3570) using a Velocity11 VPrep liquid handling system (Agilent) integrated into a BioCel robotic platform (Agilent) in columns 1-22, leaving columns 23-24 empty for negative (Ambion, Negative control #1) and positive (mouse Casp4) controls, respectively. The median value of each plate's negative control column was used to normalize sample wells, and the positive control was used to assess transfection efficiency and assay performance.
Lipofectamine RNAiMAX Transfection Reagent ([…]; Invitrogen) was added in […] serum-free, antibiotic-free media to plate wells using a Thermo Scientific Matrix WellMate and Microplate Stacker. Plates were incubated for 45 min at room temperature to allow for the sufficient formation of siRNA-lipid complexes. Cells were seeded at a density of 1x10^4 cells per well in 20 microL media containing 20% (vol/vol) FBS without antibiotics. The final concentration of siRNA in each well was 100 nM. Cells were cultured for 48h at 37 degrees C in 5% CO2 before addition of […] of TLR ligand Pam3CSK4 for 5 hours. The medium was then removed, replaced with […] growth media and cell were transfected with […] of LipidA and TransIT-TKO (Mirus) for 24 hour. At the end of the LipidA treatment, […] of supernatant was transferred to a 384 Greiner Bio-one non-binding low volume plate and […] of IL-1a HTRF reagent (Cisbio, 62MIL1APEH) was added and incubated at room temperature overnight. The plates were read on an EnVision plate reader (PerkinElmer). Cell viability was measured by adding 20ul Cell Titer Glo to the original plate and running a luminescence read on the EnVision. The quantified IL-1a signal for each siRNA gene-targeted well was divided by the median of the negative control wells and multiplied by 100 to achieve a negative control normalized value for each well/siRNA. This normalized value was then used to generate a robust z-score by first taking the log of each value and then by subtracting the median and dividing by the […].

Sequence	z-score
GGCAACUGAAAUGUUUGUUTT against Rap2c	active: 2.14
GGACGAAUUUGAGGAAAUATT against Lrp4	inactive: -0.596
GGAGUGCUUUUAAAUCCCUTT against Rreb1	inactive: -1.43
GGAGGUUCGGCUAAAACUGTT against BC005624	inactive: -1.58
GCGAGGUGAAAAGCUUCUGTT against Sobp	inactive: -0.433
GGUGUACCAAGUGUUUUCATT against Faf2	active: 3.08
GGCAUUUUCAUGUGCUUUGTT against Wdhd1	inactive: -0.364
CGGUUAAAUGAUUUUGCUATT against Cox5a	inactive: 0.815
GGAAAUUCAAAAGACGCAGTT against Orm2	inactive: 0.785
GCAAGCCAAAUUGUCCCGGTT against Usp39	inactive: -0.00475
GGGUUGUGGCUGCUACUAUTT against Pira2	active: 2.18
CCAUGUUCCUGGCAUAUAUTT against Opn4	inactive: 0.889
CCACAUAAGUGGCUUAUCATT against Slc35d2	inactive: -1.79
GCGCGUGACAAGGAGGAUUTT against Ska3	inactive: 1.03
CCGCCAUAGGCUCCUUCAATT against Acat3	inactive: 0.915
GGAUCAGGAUUUAAUGAAUTT against Zc2hc1a	inactive: -1.13
GGUUAUCAAGAUUGCAUGUTT against Olfr853	inactive: -0.646
GGAGAUGUGUGCUAUGUGGTT against Gzmb	inactive: 0.498
GGAGAUUUCUUCCAUGGUCTT against Hspa2	inactive: 0.445
CGGAAGCCUCCACAAAUAATT against Apba1	inactive: 0.0959
AGGAAACAGCACCUUGUUGTT against Olfr205	inactive: 0.192
GGCCUUGAAGGAGAUGCUATT against Rell2	inactive: 0.887

Sequence	z-score
GGCGGAAGCCAUCUAACUUTT against Arhgef4	inactive: -0.519
GGAGCUAAAAGAGUGCUCCTT against Ints9	inactive: -0.207
GGAAUUUGUGAUCAGCGACTT against Cotl1	inactive: 0.194
GGGAAAUAACGAAUUUCAGTT against Zfp292	inactive: 0.926
GGCAGGACAUUCUCAAAUCTT against Praf2	active: 2.51
GGAUGCAAUGGCUGAGAAGTT against Pth	inactive: 0.234
GGAAGAGGUAGUUGCUAGATT against Gml2	inactive: 0.82
GGUUCUGGAGCAAAUCCACTT against Styk1	active: 2.37
GGACAGCCAGUAAAUACAUTT against Cd300c2	inactive: 1.71
GGGCCUACAUUAUUCAGCATT against Dapl1	inactive: -1.3
GGUAUGCUCUCUGUUGACUTT against Olfr922	inactive: 0.472
GCCAAGUUCUCGAAUAUUATT against Pnpla8	inactive: 1.11
GGAUCAAUGGAUUCUGCACTT against Fam162a	inactive: -0.808
GCAGUAGGUGCCUUAUUGGTT against Rab11a	inactive: -1.39
CGCAAUGUGUUGGGCCUCATT against Pik3r5	inactive: 1.28
GGGUUAUUGAAUUAGUUCATT against Mybl1	inactive: -0.14
CGUGUAUGAGGCUAAGUUATT against Gpr68	inactive: 1.92
GCAUAAACUAACCACUUAGTT against Evi2b	inactive: -1.77
GCUAUAAGUUUCUGGGUGATT against Fzd2	inactive: 0.658
GGCUGUGAAAUCGGAUUUATT against Cacnb2	inactive: 0.217
GGACUUGAUUGAAGUCAUATT against Tmem132d	inactive: 0.242
GGAGAGUAUGGACAGUAUUTT against Pgc	active: 2.96

Exported as labelled records: part of the list above
GCCAAGUUCUCGAAUAUUATT against Pnpla8
  z-score: inactive: 1.11
CGCAAUGUGUUGGGCCUCATT against Pik3r5
  z-score: inactive: 1.28
GGAGAGUAUGGACAGUAUUTT against Pgc
  z-score: active: 2.96

The list goes on.

Sequence	z-score
GGUUGUUUCCAGUAUUCUGTT against Apc2	inactive: 1.18
GGGUUAGAACUGACACCCGTT against Elk4	inactive: 0.204
GGAUAUACAUGGUCUGUUUTT against Naip5	inactive: 0.318
GCAAGACAAUCGAAGAAUATT against Pgm1	inactive: 0.199
CCAUGGACAUCGAUCACAUTT against Sec14l3	inactive: -1.09
GGUUCAUGUAGCAGUGGAUTT against Isoc2b	inactive: -1.21
AUGGGCUGUUUAAAGUCCATT against Aim2	inactive: 0.555
GAGGGAGAUGUCGUCCAAGTT against Gng13	inactive: 0.223
GGGACCAGAACCACAAACATT against Ghsr	inactive: -1.62
GCGAGUAGGCAUGAUCGUUTT against Vsig8	inactive: 0.555
GGAGAAUGGAAAGUAUGGGTT against D1Pas1	inactive: -1.99
GGCCUGAGGACUAUGUUUUTT against C1s1	inactive: -0.149
GGAUGGAGACCUCUCCUUUTT against Guca2a	inactive: 1.36
GGUUGUGAGCUAACAAUGGTT against B430209F14Rik	inactive: 1.25
GCUAGCACAGGGAAUUUAGTT against Rgs20	inactive: 0.334
CCCAGACGAGAACUGUAUCTT against Sqor	inactive: -0.0381
CGAGAACUUCAUCAAUCGCTT against Prss46	inactive: -1.98
GGAUUUUUCUAGCAAGUUGTT against Ergic2	inactive: 0.814
GGUCAUACUCUAAUCGGACTT against Ctss	inactive: 0.672
GGUAGAGGAUGCGAUGCUGTT against Msi2	active: 4.61
GGAAACUGUAGAGAACAUUTT against Csn1s2b	inactive: -0.378
GCAUCUGUGUAGAAGUGGATT against Thrsp	inactive: -1.21

Part of the list above in another layout.
GGUUGUUUCCAGUAUUCUGTT against Apc2
  z-score: inactive: 1.18
GGGUUAGAACUGACACCCGTT against Elk4
  z-score: inactive: 0.204
GCAAGACAAUCGAAGAAUATT against Pgm1
  z-score: inactive: 0.199
GGAUGGAGACCUCUCCUUUTT against Guca2a
  z-score: inactive: 1.36

(next part)

Sequence	z-score
GGAGAAGAAAACAUCAAGUTT against Hrh3	active: 2.52
GCCCACGAGCCUCAUGGACTT against Sts	inactive: -0.805
GCAAACACUUGAAUGUUCATT against Cacnb4	inactive: 0.667
CCCUAGAUGGCCGAAAUAUTT against Dazap1	inactive: -1.47
CGGAACUAUGAAAAGAAAUTT against Stk3	inactive: 0.674
GGACAUUCGUGGUUCCAUCTT against Abcb8	inactive: 0.166
GCAGACAGCACUAUGUCUUTT against Tceal5	inactive: 0.0945
GGCAAAAUUUGUGUGCAAATT against Mrc1	inactive: 1.02
GGGAAUCUUGGCAUGAUGGTT against Olfr1030	inactive: -0.325
GCAGAAGUCUAUCACCUUUTT against Olfr1441	inactive: -0.155
GGUCCAAAAGUUGUUUCAATT against Oga	active: 3.12
GGGCAAACUCUAUAAUCAGTT against BC023105	inactive: 0.337
GGUCUCAGUUUCUCAGAAUTT against Siglece	inactive: -1.62
CCACAAAUAUGGUAGGUUCTT against Tmem170	inactive: -0.867
GGAAAUGAAGGCAGCAAUGTT against Olfr1311	inactive: -0.376
GCCUUGUCUAUAGGACUGUTT against Grm6	inactive: -0.00801
GGCAGAAAGUAAAUCCGUGTT against Exoc3l4	inactive: -1.22
GGGAUGGACUUAUACCUGUTT against Vmn1r220	inactive: 0.328
GCAACAAGUGUUGGACUCATT against Tob2	active: -2.04
GGUAGAUGAUAAUUUCACUTT against 4930595M18Rik	inactive: -0.894
GCGAUGGACUCAAAAAACUTT against Ehd3	inactive: 0.0497
GCUAGAUUACUCACAUCUATT against Ivl	inactive: 1.31

Sequence	z-score
GCUGGAUUAUUUGAGAGUCTT against Trim62	active: 2.17
GCAUUAUGUCCCAACAUAATT against Olfr935	inactive: 0.0875
CCAUCUCGAUUUGUAUAAUTT against Tmigd1	inactive: -1.16
GCUCAAUAAAGGUGUGGAATT against Cox6a2	inactive: -0.535
GCUGACCUAUUAUCAGAAGTT against Sclt1	inactive: 1.4
CGUUGCUGACUGCUAUGAATT against Tmprss13	inactive: -1.22
GCAUAAUUCAGUUGAUUACTT against Fbxw15	inactive: 1.36
GGACCAUUGCCAGAAACUATT against Ptpn20	inactive: -0.0169
GGAAUCGGACUACCUCAUCTT against Lrp11	inactive: 0.218
GCUUAUGAACUAACAUAGATT against Ccr2	inactive: -0.103
CGGAAUGAUCUAGAAAAUATT against Arhgap29	inactive: 0.954
GGUUUCCAGAAGAAACUCCTT against Vmn1r66	inactive: 0.518
GCAACCUGUAUGCUUUUGUTT against Fbxw17	inactive: 0.447
CCGUCCACACUUUUUGCUGTT against Isyna1	inactive: -0.101
GGCAUGACAGCGGUUAUCUTT against Slc25a16	inactive: 0.233
GCGCACAGUACAUUCAUUUTT against Drd5	active: 3.62
GGGACUUUGAGAAGCAGAGTT against Gja10	inactive: 0.352
UAACAGACCAGUAAAGGCCTT against Klra21	inactive: 0.322
GCUUGAGAUACCAGAACCATT against Zfp449	inactive: -0.127
